In PubChem BioAssay AID2685 (National Center for Advancing Translational Sciences (NCATS), 2010):
The other results are listed elsewhere or left out. Further columns of the screen follow, without active or inactive calls. Most of these compounds were active or inconclusive in the main read-out, so they are no random draw. The note in brackets gives the kind of curve behind each potency; many fits are weak.

Assay: qHTS Assay for Lipid Storage Modulators in Drosophila S3 Cells;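 as to cell number change: cells counted by Cell Tracker Red CMTPX staining in the red channel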
Details: BODIPY lipid droplet fluorescence, 18-24 h; for cell number change: measured here: cell count max response, cells fed with added oleic acid
How it was run: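 Drosophila S3 cells got compounds at several concentrations plus oleic acid (400 uM solution). Laser-scanning cytometry with 488 nm excitation read lipid droplets at 500-530 nm and cells at 575-640 nm. Percent activity was relative to 20 uM Triacsin C.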

[1] = measured here: lipid fluorescence (Fed channel) AC50, cells fed with added oleic acid
[2] = measured here: cell number channel AC50, cells fed with added oleic acid

With `COc1ccccc1NC(=O)Cn1c2ccc(F)cc2c2nc3n(c(=O)c21)CCS3` the cell number change was 8.55% and the AC50 [1] was 3.26 µM [falling, full curve].
For `COC(=O)c1sccc1S(=O)(=O)Nc1ccc(S(N)(=O)=O)cc1`, the cell number change was -2.99%.
With `O=C1CCc2cc(S(=O)(=O)Nc3ccccc3)cc3c2N1CCC3` the AC50 [1] was 1.84 µM [falling, partial curve].
For `COc1ccccc1CCNC(=O)CSc1nc(-c2ccco2)cc(C(F)(F)F)n1`, the cell number change was -20.5% and the AC50 [1] was 3.66 µM [falling, single point].
In the case of `O=C(O)C1Cc2[nH]cnc2C(c2cccc([N+](=O)[O-])c2)N1` (centres undefined), the AC50 [2] was 0.164 µM [rising, full curve, poor fit].
`O=C(Cc1ncc(C(F)(F)F)cc1Cl)NC1CC1` showed a cell number change of -23.5%.
With `Cc1cc(N2C(=O)C(O)=C(C(=O)c3cc4ccccc4o3)C2c2cccs2)no1` (centres undefined) the cell number change was -12.5% and the AC50 [1] was 6.51 µM [falling, single point].
In the case of `O=C1C=C(c2ccc(Br)c3ccccc23)C[C@@H](c2ccc3c(c2)OCO3)C1`, the cell number change was -18.3% and the AC50 [1] was 9.2 µM [falling, single point].
With `COCCn1c(SCC(=O)N2CCOCC2)nnc1-c1ccncc1` the cell number change was -3.81% and the AC50 [1] was 0.0058 µM [falling, full curve, poor fit].
With `COc1cc(C)c(CNc2cc(C)cc(C)c2)cc1C` the AC50 [2] was 3.26 µM [rising, partial curve].
In the case of `O=C(NCc1ccc2c(c1)OCO2)c1cc(F)c(F)cc1Cl`, the cell number change was -9.38% and the AC50 [1] was 0.259 µM [rising, full curve, poor fit].
For `COc1ccc(NC(=O)C(c2cc3c(cc2[N+](=O)[O-])OCO3)N(C)Cc2ccccc2)cc1` (centres undefined), the AC50 [1] was 4.11 µM [rising, single point].
For `Cc1ccc2sc(N(CCN(C)C)C(=O)/C=C/c3cccs3)nc2c1C`, the cell number change was 26.8% and the AC50 [1] was 4.61 µM [falling, full curve].
In the case of `COCC(C)n1c(C)cc(C(=O)CSc2nnc(N)s2)c1C` (centres undefined), the cell number change was 45.2%, the AC50 [2] was 7.31 µM [rising, partial curve, poor fit] and the AC50 [1] was 5.8 µM [falling, partial curve].
In the case of `O=C(CCC(=O)N(CC(=O)NC1CCCCC1)CC1CCCO1)Nc1nccs1` (centres undefined), the cell number change was -14.2% and the AC50 [1] was 7.31 µM [falling, single point].
With `Nc1nc(Nc2cccc(F)c2)nc2ccccc12` the cell number change was -2.99% and the AC50 [1] was 0.58 µM [rising, full curve].
In the case of `O=C(Nc1cc(S(=O)(=O)N2CCOCC2)ccc1N1CCOCC1)c1ccc(S(=O)(=O)N2CCCCC2)cc1`, the cell number change was -79%.
For `Cc1cc(S(=O)(=O)NC2CCN(Cc3ccccc3)CC2)c(C)cc1Cl`, the cell number change was -28.6% and the AC50 [1] was 29.1 µM [falling, single point].
In the case of `CC1Cc2cc(/C(O)=C3/C(=O)C(=O)N(CCN4CCOCC4)C3c3cccc(Cl)c3)ccc2O1` (centres undefined), the cell number change was -50.7% and the AC50 [2] was 16.4 µM [falling, single point].
With `Cc1nc(Nc2ccccc2)sc1C` the cell number change was -7.23%, the AC50 [2] was 0.651 µM [falling, single point] and the AC50 [1] was 0.58 µM [falling, single point].
For `Cc1ccc(-c2cc(C(=O)NCc3ccc4c(c3)OCO4)[nH]n2)c(O)c1C`, the cell number change was 6.14% and the AC50 [1] was 2.59 µM [rising, full curve, poor fit].
`CC(C)(C)NC(=O)C(c1ccc(F)cc1)N(CC1CCCO1)C(=O)CCC(=O)Nc1ccccn1` (centres undefined) gave a cell number change of 3.15%.
With `Cc1[nH]c(=O)c(C(=O)/C=C/c2ccccc2F)c2c1CCCC2` the cell number change was -47.2% and the AC50 [2] was 29.1 µM [falling, single point].
`CN(C(=O)COC(=O)c1ccc(=O)n(Cc2ccccc2)n1)c1ccccc1` showed a cell number change of -12.1%.
With `CCOC(=O)C1=C(CC)Nc2ccccc2N=C1NC(=O)Nc1ccccc1OC` the cell number change was 111%, the AC50 [2] was 3.66 µM [rising, partial curve] and the AC50 [1] was 2.59 µM [rising, full curve].
For `Cc1noc(C)c1S(=O)(=O)N1CCCC1C(=O)O` (centres undefined), the cell number change was -27.6% and the AC50 [1] was 29.1 µM [rising, partial curve, poor fit].
In the case of `O=C(c1ccc([N+](=O)[O-])cc1)N1CCN(C(=O)c2ccco2)CC1`, the cell number change was -18.8% and the AC50 [1] was 0.146 µM [falling, full curve, poor fit].
In the case of `CCC(=O)Nc1ccc(-c2nnc(-c3ccccc3)o2)cc1`, the cell number change was -8.55% and the AC50 [1] was 6.51 µM [falling, single point].
For `COc1cccc(C(=O)OC(C)CN2CCCC2)c1` (centres undefined), the cell number change was 10.8% and the AC50 [1] was 16.4 µM [rising, single point].
With `O=C(COc1cc(F)ccc1[N+](=O)[O-])Nc1ccc2c(c1)OCO2` the cell number change was -9.1% and the AC50 [1] was 4.11 µM [rising, single point].
In the case of `Oc1c(C(c2ccco2)N2CCC3(CC2)OCCO3)sc2ncnn12` (centres undefined), the cell number change was 10.1% and the AC50 [1] was 29.1 µM [falling, single point].
For `CC(=O)NCCOc1ccc(C(=O)O)cc1`, the cell number change was 8.35% and the AC50 [1] was 0.82 µM [falling, full curve].
In the case of `Cc1noc(C)c1C(=O)N(CC(C)C)c1nc2ccccc2s1`, the cell number change was 63.4% and the AC50 [2] was 29.1 µM [rising, single point].
In the case of `S=C(c1cn(CCOc2cccc3ccccc23)c2ccccc12)N1CCCC1`, the cell number change was 28% and the AC50 [1] was 6.51 µM [rising, partial curve].
With `CN(C)Cc1nc2ccccc2c(=O)n1Cc1nc(C(C)(C)C)cs1` the cell number change was -22.6% and the AC50 [1] was 0.326 µM [rising, partial curve, poor fit].
Work on `O=C1CC(C(F)(F)C(F)(F)C(F)(F)C(F)(F)F)=Nc2ccccc2N1` yielded a cell number change of -27.8%.
For `COc1cc2ccccc2cc1C(=O)Nc1nc(C)c(C(C)=O)s1`, the cell number change was 2.99% and the AC50 [1] was 20.6 µM [rising, partial curve].
In the case of `CC(C)C(=O)Nc1cccc2nsnc12`, the cell number change was -9.8% and the AC50 [1] was 0.461 µM [falling, partial curve].
For `Cc1ccc(S(=O)(=O)N2CC=C(C(=O)NC3CCCC3)CC2)cc1`, the AC50 [1] was 6.51 µM [falling, single point].
With `COc1ccccc1CNC(=O)COC(=O)c1ccc(NC(N)=O)cc1` the cell number change was 24.9% and the AC50 [1] was 11.6 µM [rising, partial curve].
In the case of `Cc1ccc(CSc2nnc(SCC(=O)N/N=C/C=C/c3ccccc3[N+](=O)[O-])s2)cc1`, the cell number change was -52.3%, the AC50 [2] was 20.6 µM [falling, single point] and the AC50 [1] was 1.84 µM [rising, partial curve].
`Cc1ccccc1OCCCC(=O)Nc1ccc(Br)cc1` showed a cell number change of 58.4%.
With `Cc1ccc2cc(CN(Cc3ccco3)C(=S)NCC3CCCO3)c(=O)[nH]c2c1C` (centres undefined) the cell number change was 14.3% and the AC50 [1] was 6.51 µM [rising, single point].
With `COc1ccc(/C=N/NC(=O)c2ccc(CN3c4cccc5cccc(c45)S3(=O)=O)cc2)cc1` the cell number change was 5.97% and the AC50 [1] was 29.1 µM [rising, single point].
In the case of `COCCn1nnnc1CN1CCN(c2cccc(C(F)(F)F)c2)CC1`, the cell number change was 55.3% and the AC50 [2] was 5.8 µM [rising, full curve].
For `COc1ccc(-c2cc(C(=O)NCc3ccco3)no2)cc1OC`, the cell number change was 33.5%, the AC50 [2] was 2.06 µM [rising, full curve] and the AC50 [1] was 5.17 µM [rising, single point].
In the case of `Clc1ccc2nc(-c3ccccc3)cn2c1`, the cell number change was 13.6% and the AC50 [1] was 10.3 µM [rising, single point].
With `COC(=O)Nc1nc2ccc(SC(C)C)cc2[nH]1` the cell number change was -7.17%, the AC50 [2] was 0.517 µM [rising, single point] and the AC50 [1] was 0.517 µM [rising, full curve].
For `CCC(C)(C)n1nnnc1C(c1ccncc1)N1CCN(c2cccc(OC)c2)CC1` (centres undefined), the AC50 [2] was 6.51 µM [rising, single point].
For `Cc1ccc(NS(=O)(=O)c2ccc3c(c2)n(C)c(=O)n3C)c(C)c1`, the cell number change was 15.2% and the AC50 [1] was 6.51 µM [rising, single point].
In the case of `Cc1ccc(OCC(=O)NNC(=O)C(C)Sc2ncnc3sc(C)c(C)c23)cc1` (centres undefined), the AC50 [2] was 0.103 µM [rising, full curve, poor fit] and the AC50 [1] was 0.058 µM [rising, full curve, poor fit].
For `Cc1cc(C)n2ncc(C(=O)NCc3ccccc3)c2n1`, the AC50 [2] was 0.411 µM [rising, partial curve, poor fit] and the AC50 [1] was 0.517 µM [rising, partial curve, poor fit].
In the case of `COc1ccc(CNC(=O)C(NS(=O)(=O)c2ccc3c(c2)CCCN3C(C)=O)C(C)C)cc1` (centres undefined), the cell number change was 7.09% and the AC50 [1] was 0.13 µM [rising, full curve, poor fit].
With `CCc1nnc(NC(=O)CSc2nnc(COc3ccccc3)n2Cc2ccccc2)s1` the AC50 [2] was 6.51 µM [rising, single point] and the AC50 [1] was 29.1 µM [rising, single point].
In the case of `O=C(N/N=C\c1ccc(Oc2ccccc2)cc1)c1csnn1`, the cell number change was 39.1%, the AC50 [2] was 18.4 µM [rising, partial curve, poor fit] and the AC50 [1] was 29.1 µM [rising, partial curve, poor fit].
With `O=C(NC1CCCC1)C1c2ccccc2C(=O)N1CCCN1CCOCC1` (centres undefined) the cell number change was 31.1%, the AC50 [2] was 10.3 µM [rising, partial curve] and the AC50 [1] was 0.103 µM [falling, full curve, poor fit].
With `CCOC(=O)Cn1nnc(-c2cc(OC)c(OC)c(OC)c2)n1` the cell number change was 40.7%.
With `CCOc1cc(C)c(C(C)C)cc1S(=O)(=O)n1ccc(C)n1` the cell number change was 13.5% and the AC50 [1] was 0.82 µM [rising, single point].
In the case of `CC(C#N)Sc1ccc(S(=O)(=O)N2CCCCC2)cn1` (centres undefined), the cell number change was 13.5% and the AC50 [1] was 0.00461 µM [falling, full curve, poor fit].
With `O=C(CSc1ccc2ccccc2c1)NCCc1ccc(O)c(O)c1` the cell number change was -3.11% and the AC50 [1] was 29.1 µM [falling, partial curve, poor fit].
